PubChem BioAssay AID1259254, NCATS – 2017

- Assay: 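Genome-wide screen for genes that prevent DNA re-replication in cancer cells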 (primary screen)
- Cell system: human HCT116 colorectal cancer cells
- Reagents: single siRNA against human genes
- Duration: 3 days
- Measured: 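Nuclei stained with Hoechst and imaged; cell-cycle phase assigned by DNA content; G2 share scaled per plate, non-targeting siRNA 0%, GMNN siRNA 100%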
- Reading the numbers: G2 robust z-score: higher = more G2 cells, more excess DNA replication
- Rule for the call: 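An siRNA counts as active if its G2 robust z-score lies at least 5 MADs above the screen median; here such calls match roughly 38% of GMNN control or more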
This is an unselected part of about 59,000 deposited reagents. About 1,550 of them (2.6%) were called active. 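G2 share is only a proxy for re-replication; each gene was hit by three separate siRNAs, and active genes were retested.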 Not all columns of the deposit are shown. No sequences are given here. Not given: the amount of reagent.

G2 robust z-score, by gene and reagent
RAB28: SID160722040 1.58 inactive; SID160722041 -0.408 inactive; SID160722042 -0.87 inactive
ZNF582: SID160758605 -0.736 inactive; SID160758607 0.877 inactive; SID160758608 -0.435 inactive
CD248: SID160745653 0.00192 inactive; SID160745654 1.83 inactive; SID160745655 4.64 inactive
PNMA8A: SID160743287 0.487 inactive; SID160743288 -0.609 inactive; SID160743289 -0.0674 inactive
TCERG1: SID160729508 -0.511 inactive; SID160729510 0.723 inactive; SID160729511 2.31 inactive
EXT1: SID160762561 -0.938 inactive; SID160762571 -0.194 inactive; SID160762582 -0.804 inactive
MCU: SID160753738 -0.0345 inactive; SID160753739 0.201 inactive; SID160753740 -0.185 inactive
IL36A: SID160738514 -0.0811 inactive; SID160738515 1.11 inactive; SID160738516 3.3 inactive
NUTM2A-AS1: SID160734303 -1.01 inactive; SID160771565 3.57 inactive; SID160771566 -0.749 inactive
PCDH10: SID160746314 4.46 inactive; SID160746316 0.904 inactive; SID160746317 0.431 inactive
KRT33B: SID160776440 0.71 inactive; SID160776441 0.085 inactive; SID160776442 -0.638 inactive
SEC11A: SID160736363 -1.15 inactive; SID160736364 6.59 active; SID160736365 0.115 inactive
OBSCN: SID160751621 0.465 inactive; SID160751622 0.837 inactive; SID160751623 1.23 inactive; SID160774078 0.17 inactive; SID160774079 1.05 inactive; SID160774080 -0.802 inactive
KCNAB2: SID160720207 -0.472 inactive; SID160720208 0.758 inactive; SID160720209 2.28 inactive
CACNG8: SID160746972 9.47 active; SID160746973 -0.732 inactive; SID160746974 0.097 inactive
GAMT: SID160769173 -1.13 inactive; SID160769183 -0.573 inactive; SID160769190 0.629 inactive
PPP1R1C: SID160732572 0.661 inactive; SID160732573 0.123 inactive; SID160759077 1.66 inactive
STON2: SID160753277 5.36 active; SID160753278 -0.198 inactive; SID160753279 0.476 inactive
SLC39A14: SID160736443 0.664 inactive; SID160736445 0.832 inactive; SID160736446 -0.947 inactive
SLC52A1: SID160731487 0.462 inactive; SID160742853 4.16 inactive; SID160742854 -0.272 inactive
GNAI2: SID160771888 -1.23 inactive; SID160771897 -0.917 inactive; SID160771905 -0.0346 inactive
CXCR1: SID160775739 -0.582 inactive; SID160775740 -0.203 inactive; SID160775741 1.16 inactive

8 entries from above, set out differently.
CD248 [SID160745654]
- G2 robust z-score: 1.83
- Call: inactive

CD248 [SID160745655]
- G2 robust z-score: 4.64
- Call: inactive

PNMA8A [SID160743287]
- G2 robust z-score: 0.487
- Call: inactive

PNMA8A [SID160743288]
- G2 robust z-score: -0.609
- Call: inactive

PNMA8A [SID160743289]
- G2 robust z-score: -0.0674
- Call: inactive

TCERG1 [SID160729508]
- G2 robust z-score: -0.511
- Call: inactive

TCERG1 [SID160729510]
- G2 robust z-score: 0.723
- Call: inactive

TCERG1 [SID160729511]
- G2 robust z-score: 2.31
- Call: inactive
